Data as given in PubChem BioAssay AID652259 (Drosophila RNAi Screening Center, 2013)
In all, the deposit lists about 22,000 reagents; shown is an unselected part of those with a known target gene and a result. In the full data, 233 (1.1%) were called active. 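Light values are raw, unnormalised plate reads; the ratio scores behind the reporter calls were not deposited.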 Entries without a mark were called inactive. Not given: the amount of reagent, the time to read-out, the dose of the treatment.

Screen: 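Knock-downs that push a Wingless-driven reporter up or down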 (primary screen)
Cells: Drosophila clone 8 imaginal disc epithelial cells
Reagent: long dsRNA against Drosophila genes
Conditions: pathway stimulated by co-transfected Wingless expression plasmid
Read-out: 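Firefly luciferase from a tcf-site Wingless reporter, measured alongside co-transfected Renilla luciferase that tracks transfection; pathway stimulated by a Wingless plasmid; the firefly-to-Renilla ratio is not deposited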
Scale: firefly reporter light: higher = more Wg reporter light, before normalisation; Renilla control light: higher = more transfected or surviving cells
Call rule: 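a knock-down is a candidate when at least two out of four statistical tests show it departing from its plate mean; one test alone signals a weak candidate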
Meaning of the calls: active = candidate regulator (raises or lowers reporter); inactive = not a candidate

| gene knocked down | amplicon | reporter change call, replicate 1 | firefly reporter light, replicate 1 | firefly reporter light, replicate 2 | Renilla control light, replicate 1 | Renilla control light, replicate 2 |
| --- | --- | --- | --- | --- | --- | --- |
| Nlg1 | DRSC12485 | – | 2681 | – | 1424 | – |
| Nlg1 | DRSC12532 | – | 6388 | – | 1853 | – |
| Nlg1 | DRSC12533 | – | 13457 | – | 3138 | – |
| Nlg1 | DRSC12539 | – | 14021 | – | 2630 | – |
| CG33483 | DRSC14019 | – | 4372 | – | 1500 | – |
| CG9132 | DRSC20159 | – | 2010 | 5335 | 856 | 2567 |
| Jhbp1 | DRSC12167 | – | 22646 | – | 6234 | – |
| frj | DRSC03250 | – | 11301 | – | 3596 | – |
| CG17746 | DRSC08521 | – | 7232 | – | 3132 | – |
| eIF1A | DRSC16937 | Wg reporter activity raised (active) | 1.13e5 | – | 2544 | – |
| CR18228 | DRSC15317 | – | 20557 | – | 4550 | – |
| Aldh | DRSC02717 | – | 1478 | 5418 | 963 | 2939 |
| CG2701 | DRSC18590 | – | 2199 | 8432 | 931 | 2779 |
| CG10877 | DRSC14274 | – | 16624 | – | 4133 | – |
| mtm | DRSC03576 | – | 11316 | – | 4835 | – |
| CG12877 | DRSC14565 | – | 10445 | – | 2869 | – |
| CG11149 | DRSC02130 | – | 1885 | 6135 | 1028 | 2605 |
| CR31427 | DRSC22675 | – | 8.65e5 | 8.59e5 | 4.08e5 | 93749 |
| CG30472 | DRSC22245 | – | 8.99e5 | 8.40e5 | 4.59e5 | 5.59e5 |
| niki | DRSC14285 | – | 17424 | – | 13274 | – |
| Paris | DRSC00451 | – | 13956 | – | 4736 | – |
| CysRS-m | DRSC07129 | – | 9740 | – | 2985 | – |
| Rsod | DRSC15424 | – | 5788 | – | 2091 | – |
| CG4884 | DRSC15671 | – | 2336 | – | 1912 | – |
| promL | DRSC08733 | – | 3862 | – | 1018 | – |
| djl | DRSC12578 | – | 10813 | – | 2056 | – |
| CG5335 | DRSC06931 | – | 11205 | – | 3033 | – |
| CG14795 | DRSC18513 | – | 28816 | – | 12701 | – |
| CG7611 | DRSC11840 | – | 8981 | 8.06e5 | 4620 | 3.93e5 |
| CG31776 | DRSC00716 | – | 2501 | 8214 | 1129 | 2905 |
| Zasp67 | DRSC10169 | – | 11323 | – | 4402 | – |
| CG18539 | DRSC06766 | – | 7824 | – | 2778 | – |
| CG15882 | DRSC19735 | – | 15524 | – | 8859 | – |
| stai | DRSC02920 | – | 2473 | 4528 | 659 | 1792 |
| stai | DRSC22235 | – | 6.42e5 | 7.32e5 | 2.31e5 | 2.71e5 |
| Vago | DRSC19833 | – | 21027 | – | 10968 | – |
| CG2681 | DRSC18464 | – | 2843 | 11147 | 1096 | 3399 |
| CG10663 | DRSC09770 | – | 7777 | – | 1850 | – |
| l(3)neo38 | DRSC14946 | – | 24342 | – | 6040 | – |
| l(3)neo38 | DRSC16138 | – | 19808 | – | 4311 | – |
| CG9458 | DRSC16495 | – | 15719 | – | 4133 | – |
| Pgm2b | DRSC05978 | – | 14930 | – | 6011 | – |
| HP1Lcsd | DRSC03999 | – | 15353 | – | 9568 | – |
| Osi22 | DRSC16442 | – | 14554 | – | 3981 | – |
| Ppa | DRSC04598 | – | 5031 | 9458 | 1265 | 2577 |
| RanBP3 | DRSC14217 | – | 1584 | 4960 | 682 | 1162 |
| CG33462 | DRSC22902 | – | 4.27e5 | 5.49e5 | 1.79e5 | 1.02e5 |
| CG15890 | DRSC19737 | – | 13248 | – | 6211 | – |
| CG16799 | DRSC06626 | – | 9604 | – | 4458 | – |
| CG16799 | DRSC21553 | – | 5.57e5 | 5.27e5 | 2.58e5 | 2.14e5 |
| CG13074 | DRSC09957 | – | 8425 | – | 2663 | – |
| RabX2 | DRSC18234 | – | 14505 | – | 12172 | – |
| Spn42Da | DRSC05025 | – | 1831 | 6423 | 131 | 3557 |
| asRNA:CR33945 | DRSC14080 | – | 3381 | – | 1315 | – |
| Adck1 | DRSC04394 | – | 11189 | – | 2571 | – |
| Nca | DRSC11233 | – | 15059 | – | 5584 | – |
| Alp13 | DRSC15781 | – | 17705 | – | 4438 | – |
| ms(3)76Ba | DRSC10091 | – | 9015 | – | 3101 | – |
| CG5521 | DRSC15828 | – | 7659 | – | 2424 | – |
| naz | DRSC14790 | – | 19008 | – | 4308 | – |
| naz | DRSC16199 | – | 14884 | – | 3798 | – |
| CG30340 | DRSC05167 | – | 16146 | – | 6840 | – |
| CG13751 | DRSC06422 | – | 3383 | 6023 | 770 | 2867 |
| CG4927 | DRSC06903 | – | 5315 | – | 2409 | – |
| CG8560 | DRSC10994 | – | 6568 | – | 2488 | – |
| mei-38 | DRSC18564 | – | 24203 | – | 16586 | – |
| CG6337 | DRSC06977 | – | 10123 | – | 3843 | – |
| CG6337 | DRSC21870 | – | 4.63e5 | 4.23e5 | 2.32e5 | 2.35e5 |
| Ipk1 | DRSC04235 | – | 11715 | – | 3184 | – |
| Ipk1 | DRSC04236 | – | 2355 | 6913 | 800 | 2313 |
| Ipk1 | DRSC04237 | – | 3025 | 6822 | 966 | 2432 |
| Ets97D | DRSC16665 | – | 8756 | – | 3952 | – |
| Src42A | DRSC04865 | – | 13177 | – | 3520 | – |
| Src42A | DRSC04915 | – | 3741 | 10236 | 890 | 3050 |

10 entries already listed, arranged by “Renilla control light, replicate 1”, descending.
| gene knocked down | amplicon | reporter change call, replicate 1 | firefly reporter light, replicate 1 | firefly reporter light, replicate 2 | Renilla control light, replicate 1 | Renilla control light, replicate 2 |
| --- | --- | --- | --- | --- | --- | --- |
| HP1Lcsd | DRSC03999 | – | 15353 | – | 9568 | – |
| l(3)neo38 | DRSC14946 | – | 24342 | – | 6040 | – |
| Pgm2b | DRSC05978 | – | 14930 | – | 6011 | – |
| l(3)neo38 | DRSC16138 | – | 19808 | – | 4311 | – |
| CG9458 | DRSC16495 | – | 15719 | – | 4133 | – |
| Osi22 | DRSC16442 | – | 14554 | – | 3981 | – |
| CG10663 | DRSC09770 | – | 7777 | – | 1850 | – |
| Ppa | DRSC04598 | – | 5031 | 9458 | 1265 | 2577 |
| CG2681 | DRSC18464 | – | 2843 | 11147 | 1096 | 3399 |
| RanBP3 | DRSC14217 | – | 1584 | 4960 | 682 | 1162 |
